Results are given in words; binding and its absence hold for the method and conditions named. For part of these data: Binding seen in cells or lysates may run through a third protein. Some entries that bind do so weakly or less than the wild type.
Columns and labels:
[1] = biological target: Ataxin-3 (ATXN3), endogenous (human (endogenous in AGS, HEK-293, SH-SY5Y)) (UniProt P54252); experiment: co-IP; nuclear extracts (1 mg, benzonase treated) of HEK-293 and SH-SY5Y cells IP'd with anti-PNKP or anti-ATXN3 Ab, IgG as control; Western blot; HEK-293 cells treated with control, PNKP or ATXN3 siRNA
[2] = biological target: polynucleotide kinase 3'-phosphatase (PNKP), endogenous (human (endogenous in AGS, HEK-293, SH-SY5Y)) (UniProt Q96T60); experiment: as above
[3] = biological target: bovine serum albumin (bovine) (UniProt P02769); experiment: far-Western, overlay or dot blot; far-Western: WT ATXN3 (ln 1), mutant ATXN3 (ln 2) and BSA (ln 3) on the gel, interaction with full-length PNKP; both purified

Amino acid sequences for entries named in this document (tags omitted). Residues count along the entry.
UniProt P54252: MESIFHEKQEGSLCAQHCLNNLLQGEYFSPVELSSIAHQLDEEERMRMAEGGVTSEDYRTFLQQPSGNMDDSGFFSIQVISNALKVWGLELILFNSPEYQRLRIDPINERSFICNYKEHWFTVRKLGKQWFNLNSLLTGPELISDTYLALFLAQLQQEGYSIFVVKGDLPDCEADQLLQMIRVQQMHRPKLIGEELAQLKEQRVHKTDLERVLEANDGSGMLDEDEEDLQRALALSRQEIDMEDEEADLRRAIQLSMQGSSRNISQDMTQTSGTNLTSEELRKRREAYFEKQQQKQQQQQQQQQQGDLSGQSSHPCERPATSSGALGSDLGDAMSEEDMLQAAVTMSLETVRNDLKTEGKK
UniProt P02769, residues 25-607: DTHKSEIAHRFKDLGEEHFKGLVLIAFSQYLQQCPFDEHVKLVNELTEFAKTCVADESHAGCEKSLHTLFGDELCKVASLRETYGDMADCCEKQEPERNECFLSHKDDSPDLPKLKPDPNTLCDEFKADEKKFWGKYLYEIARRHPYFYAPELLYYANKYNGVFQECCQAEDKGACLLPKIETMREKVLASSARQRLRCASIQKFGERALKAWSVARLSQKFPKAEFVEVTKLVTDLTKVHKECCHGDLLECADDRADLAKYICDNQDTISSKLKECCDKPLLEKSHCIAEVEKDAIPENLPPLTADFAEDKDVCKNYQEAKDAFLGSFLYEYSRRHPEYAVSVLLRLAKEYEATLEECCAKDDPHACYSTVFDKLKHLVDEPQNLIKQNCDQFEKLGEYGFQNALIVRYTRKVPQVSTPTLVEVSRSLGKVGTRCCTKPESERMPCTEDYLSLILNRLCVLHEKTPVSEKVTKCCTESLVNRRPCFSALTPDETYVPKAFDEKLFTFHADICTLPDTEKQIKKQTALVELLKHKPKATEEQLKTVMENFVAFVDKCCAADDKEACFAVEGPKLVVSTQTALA

Substance: polynucleotide kinase 3'-phosphatase (PNKP), endogenous (from UniProt Q96T60 1-521) (enzyme)
- binding [1]: binds

Substance: Ataxin-3 (ATXN3), endogenous (from UniProt P54252 1-361)
- binding [2]: binds

Substance: purified recombinant full-length PNKP (from UniProt Q96T60 1-521) (enzyme)
- binding [3]: no binding
